Test: H2S release in the presence of cysteine measured with an H2S-sensitive electrode
[1] = initial concentration 40 μM, excess cysteine, pH 6.7, uncapped
[2] = 50 μM trisulfide, 10 equiv cysteine, water buffered at pH 6.7, uncapped

| SMILES | peak H2S concentration [1] [µM] | peaking time of H2S [1] [min] | peak concentration of H2S [2] [µM] | peaking time of H2S [2] [min] |
| --- | --- | --- | --- | --- |
| CC(=O)NC(CSSSSCC(NC(C)=O)C(=O)O)C(=O)O (stereo not drawn) [NAC tetrasulfide, N-Acetylcysteine Tetrasulfide] | 74 | 56 | – | – |
| CC(=O)N[C@@H](CSSSC[C@H](NC(C)=O)C(=O)O)C(=O)O [NAC trisulfide, N-Acetylcysteine Trisulfide] | – | – | 49 | 46 |
| N[C@@H](CSSSC[C@H](N)C(=O)O)C(=O)O [cysteine trisulfide, Cysteine Trisulfide] | – | – | 49 | 46 |

— paper PMC8992272, “Stabilities of Three Key Biological Trisulfides with Implications for Their Roles in the Release of Hydrogen Sulfide and Bioaccumulation of Sulfane Sulfur” (ACS Omega, 2022)
